Measured values: PMC8813966
The exact form of at least one protein or probe is not confirmed. For part of these data: A negative result means that nothing was seen under these conditions. At least one verdict was read from the data and is not stated in words by the source.

Key:
GST-LcKNAT1 [1] = target: T1, GST-LcKNAT1 (UniProt A0A5C0C733); experiment: EMSA; conditions: unlabeled same-sequence competitor abolishes binding dose-dependently (100x, 500x); LightShift Chemiluminescent EMSA kit (Thermo Scientific); pH and temperature not stated; recombinant protein; protein details: N-terminal GST (pGEX-4T-1); label: 3' biotin
GST-LcKNAT1 [2] = target: T1, GST-LcKNAT1; experiment: competition with a labelled probe; conditions: LightShift Chemiluminescent EMSA kit (Thermo Scientific), pH and temperature not stated, recombinant protein, protein details: N-terminal GST (pGEX-4T-1), label: none (competitor)

Sequence	binding result (GST-LcKNAT1 [1])	other results
GATTGTCTTTTTGCTAGTTTGTGTCAGGTCAGGCAGATCTGGGTTCTGGTG (double strand) [LcEIL3 probe1]	binds	–
GATTGTCTTTTTGCTAGTTTGTCCCCCCCCCGGCAGATCTGGGTTCTGGTG (double strand) [LcEIL3 mutant probe1]	–	binding result (GST-LcKNAT1 [2]; mutant competitor vs labeled N3): no binding
ACTTAATTTGGTCACAGCCGTTACCCCCCCCCTCATGTCCAGCCATACATGC (double strand) [LcEIL2 mutant probe]	–	binding result (GST-LcKNAT1 [2]; mutant competitor vs labeled N1): no binding
ACTTAATTTGGTCACAGCCGTTATGACTAGGTTCATGTCCAGCCATACATGC (double strand) [LcEIL2 probe]	binds	–
GGATTGGTTTTTGTATATGTGGTCAAAAAGGTCACTTGTTTGCTAAATTAGAG / CTCTAATTTAGCAAACAAGTGCCTTTTTGACCACATATACAAAAACCAATCC [LcEIL3 probe2]	binds	–
GGATTGGTTTTTGTATATGTGTTTTTTTTTTTTTCTTGTTTGCTAAATTAGAG (double strand) [LcEIL3 mutant probe2]	–	binding result (GST-LcKNAT1 [2]; mutant competitor vs labeled N5): no binding
